Test results published in publication PMC8693860.
These are yes or no findings as the source states them, for the method shown. For part of these data: Binding seen in cells or lysates may run through a third protein. Some results given as binding are weak or reduced against the parent protein; the word gives no strength. For part of these data: Sequences can lack the tags named with a protein. Values belong to the binder of their own block, whether it stands above or below them.

The chains behind the UniProt entries cited, without tags or fusion partners.
UniProt P53855: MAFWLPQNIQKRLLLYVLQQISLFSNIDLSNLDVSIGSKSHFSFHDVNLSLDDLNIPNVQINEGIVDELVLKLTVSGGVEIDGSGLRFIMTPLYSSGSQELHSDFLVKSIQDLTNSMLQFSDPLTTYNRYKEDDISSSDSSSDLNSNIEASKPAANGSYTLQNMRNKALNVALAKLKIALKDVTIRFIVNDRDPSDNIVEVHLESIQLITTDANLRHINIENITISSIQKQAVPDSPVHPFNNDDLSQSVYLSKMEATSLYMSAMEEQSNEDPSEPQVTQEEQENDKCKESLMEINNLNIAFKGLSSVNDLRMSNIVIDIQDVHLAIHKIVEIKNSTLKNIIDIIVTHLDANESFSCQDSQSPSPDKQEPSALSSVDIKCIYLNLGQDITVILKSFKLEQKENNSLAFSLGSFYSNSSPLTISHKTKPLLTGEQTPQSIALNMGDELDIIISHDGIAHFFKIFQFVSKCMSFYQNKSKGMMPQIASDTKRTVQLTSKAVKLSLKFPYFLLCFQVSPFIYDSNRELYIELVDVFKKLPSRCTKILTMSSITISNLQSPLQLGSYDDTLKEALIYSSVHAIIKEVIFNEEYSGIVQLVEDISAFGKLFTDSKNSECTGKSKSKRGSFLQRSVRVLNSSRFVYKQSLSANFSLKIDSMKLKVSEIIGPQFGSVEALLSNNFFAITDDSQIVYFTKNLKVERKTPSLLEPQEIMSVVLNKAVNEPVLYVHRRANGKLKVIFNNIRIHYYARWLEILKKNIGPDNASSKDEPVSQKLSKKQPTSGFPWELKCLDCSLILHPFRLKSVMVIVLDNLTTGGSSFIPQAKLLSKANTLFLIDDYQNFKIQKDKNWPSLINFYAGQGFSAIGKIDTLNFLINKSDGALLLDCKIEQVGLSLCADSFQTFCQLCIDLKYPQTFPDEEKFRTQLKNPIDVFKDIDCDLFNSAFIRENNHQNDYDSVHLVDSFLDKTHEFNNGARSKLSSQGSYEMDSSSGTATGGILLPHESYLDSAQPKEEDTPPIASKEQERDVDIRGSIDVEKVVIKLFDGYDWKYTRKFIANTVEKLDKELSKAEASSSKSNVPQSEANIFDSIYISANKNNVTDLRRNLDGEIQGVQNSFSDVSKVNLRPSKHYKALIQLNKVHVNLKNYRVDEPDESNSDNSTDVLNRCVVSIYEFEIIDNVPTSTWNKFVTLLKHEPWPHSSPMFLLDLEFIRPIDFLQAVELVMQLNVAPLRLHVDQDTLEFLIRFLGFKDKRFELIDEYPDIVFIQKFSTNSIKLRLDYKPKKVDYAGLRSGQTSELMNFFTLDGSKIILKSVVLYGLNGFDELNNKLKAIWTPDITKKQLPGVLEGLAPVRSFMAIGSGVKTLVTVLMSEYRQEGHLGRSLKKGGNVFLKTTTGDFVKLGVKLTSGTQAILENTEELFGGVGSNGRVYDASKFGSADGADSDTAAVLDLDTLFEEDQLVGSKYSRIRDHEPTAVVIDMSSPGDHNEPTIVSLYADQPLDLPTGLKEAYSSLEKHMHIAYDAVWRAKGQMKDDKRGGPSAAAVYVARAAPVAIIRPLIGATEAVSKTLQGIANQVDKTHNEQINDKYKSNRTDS

How the values were obtained:
Atg2 (S. cerevisiae) = Atg2 (S. cerevisiae) (UniProt P53855); assay: co-purification; recombinant complexes expressed together and purified by affinity, anion exchange and size exclusion chromatography (180 mM NaCl for complexes); SDS-PAGE
[1] = target: T1, Atg13^TOR_S^>^A (S379, S428 and S429 to alanine), not phosphorylated (S. cerevisiae) (UniProt Q06628); assay: pull-down; Atg1 complexes assembled with Atg13 mutants or truncations, with or without ATP/Mg2+ (Figures S3H-S3M, not shown; bait not told); both purified
T1 sequence: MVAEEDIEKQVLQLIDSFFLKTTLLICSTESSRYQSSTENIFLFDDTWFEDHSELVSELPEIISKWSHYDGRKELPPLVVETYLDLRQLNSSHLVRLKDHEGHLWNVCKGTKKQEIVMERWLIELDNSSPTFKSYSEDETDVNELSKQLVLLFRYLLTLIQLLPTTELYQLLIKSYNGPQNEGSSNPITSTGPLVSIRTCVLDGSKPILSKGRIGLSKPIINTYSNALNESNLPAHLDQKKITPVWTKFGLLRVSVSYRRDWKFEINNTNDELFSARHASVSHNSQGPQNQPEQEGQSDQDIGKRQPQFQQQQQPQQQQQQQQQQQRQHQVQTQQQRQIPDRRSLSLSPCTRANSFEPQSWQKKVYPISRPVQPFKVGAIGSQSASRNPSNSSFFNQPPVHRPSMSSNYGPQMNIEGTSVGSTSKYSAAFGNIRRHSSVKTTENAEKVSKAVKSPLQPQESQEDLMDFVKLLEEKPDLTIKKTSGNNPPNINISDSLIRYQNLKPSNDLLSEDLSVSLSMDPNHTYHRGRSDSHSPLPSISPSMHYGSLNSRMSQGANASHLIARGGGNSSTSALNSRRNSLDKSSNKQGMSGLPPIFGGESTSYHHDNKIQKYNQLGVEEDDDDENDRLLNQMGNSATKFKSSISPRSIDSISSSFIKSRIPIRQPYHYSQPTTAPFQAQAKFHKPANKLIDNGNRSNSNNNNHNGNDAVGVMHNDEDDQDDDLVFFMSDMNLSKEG

[2] = target: T2, Atg12–Atg5 conjugate (S. cerevisiae) (UniProt P38316+Q12380); assay: pull-down; Atg12–Atg5 conjugate immobilised on a StrepTactin column, sonicated bacterial lysate with Atg16 or Atg16-FLAG added, 10 CV wash (50 mM Tris-HCl pH 8.0, 200 mM NaCl), elution with desthiobiotin, then anion exchange and SEC; only the target purified
T2 sequence (chain, covalently conjugated to Atg5 | covalently conjugated to Atg12) 1: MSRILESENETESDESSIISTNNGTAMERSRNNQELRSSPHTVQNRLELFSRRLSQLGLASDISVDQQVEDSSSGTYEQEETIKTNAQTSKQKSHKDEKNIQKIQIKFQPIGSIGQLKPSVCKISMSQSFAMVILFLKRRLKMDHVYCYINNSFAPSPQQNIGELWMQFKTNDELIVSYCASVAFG
T2 sequence (chain, covalently conjugated to Atg5 | covalently conjugated to Atg12) 2: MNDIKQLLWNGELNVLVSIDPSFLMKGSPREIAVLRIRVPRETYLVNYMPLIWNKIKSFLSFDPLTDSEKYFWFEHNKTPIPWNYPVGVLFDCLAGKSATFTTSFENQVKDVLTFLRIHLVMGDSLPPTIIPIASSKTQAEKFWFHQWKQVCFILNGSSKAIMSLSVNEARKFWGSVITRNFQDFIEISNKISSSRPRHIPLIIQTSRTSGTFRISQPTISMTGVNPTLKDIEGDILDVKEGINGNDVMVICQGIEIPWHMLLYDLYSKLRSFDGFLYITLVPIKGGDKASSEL

- binding (Atg2 (S. cerevisiae)): binds
B1: Atg18 (protein, UniProt P43601 1-500)
chain: MSDSSPTINFINFNQTGTCISLGTSKGFKIFNCEPFGKFYSEDSGGYAIVEMLFSTSLLALVGIGDQPALSPRRLRIINTKKHSIICEVTFPTSILSVKMNKSRLVVLLQEQIYIYDINTMRLLHTIETNPNPRGLMAMSPSVANSYLVYPSPPKVINSEIKAHATTNNITLSVGGNTETSFKRDQQDAGHSDISDLDQYSSFTKRDDADPTSSNGGNSSIIKNGDVIVFNLETLQPTMVIEAHKGEIAAMAISFDGTLMATASDKGTIIRVFDIETGDKIYQFRRGTYATRIYSISFSEDSQYLAVTGSSKTVHIFKLGHSMSNNKLDSDDSNMEEAAADDSSLDTTSIDALSDEENPTRLAREPYVDASRKTMGRMIRYSSQKLSRRAARTLGQIFPIKVTSLLESSRHFASLKLPVETNSHVMTISSIGSPIDIDTSEYPELFETGNSASTESYHEPVMKMVPIRVVSSDGYLYNFVMDPERGGDCLILSQYSILMD

- binding [1]: binds
B2: Atg17-Atg29-Atg31 complex, non-phosphorylated (complex, UniProt Q06410 1-417; Q12092 1-213; Q12421 1-196)
chain 1: MNEADVTKFVNNARKTLTDAQLLCSSANLRIVDIKKKLSSWQLSISKLNFLIVGLRQQGKFLYTILKEGIGTKLIQKQWNQAVLVVLVDEMKYWQYEITSKVQRLDGIVNELSISEKDDTDPSKLGDYISRDNVNLLNDKLKEVPVIERQIENIKLQYENMVRKVNKELIDTKLTDVTQKFQSKFGIDNLMETNVAEQFSRELTDLEKDLAEIMNSLTQHFDKTLLLQDKKIDNDEREELFKVVQGDDKELYNIFKTLHEVIDDVDKTILNLGQFLQAKIKEKTELHSEVSEIINDFNRNLEYLLIFKDISNLIDSFKNSCTQDIQTTKELCEFYDNFEESYGNLVLEAKRRKDVANRMKTILKDCEKQLQNLDAQDQEERQNFIAENGTYLPETIWPGKIDDFSSLYTLNYNVKNP
chain 2: MIMNSTNTVVYIKVKGRRPQGFLDPPKFEWNGTKERQLWTMVSNLNYSQDQIDWQNLSKIFETPEFFLKKRTYKLFAEHLELLQLQLEKKRDLEKYSNDQVNEGMSDLIHKYTPTLQNDNLLNVSASPLTTERQDSEEVETEVTNEALQHLQTSKILNIHKKTSDSENKPNDKLDKDGINKEMECGSSDDDLSSSLSVSKSALEEALMDRLQF
chain 3: MNVTVTVYDKNVKYRLEENIKNNKGPSNDDQPAYNNESKSTDGSDYAMFPTNIKYIFEDNNDELVDSSDAALTAGIDKVGDELENVIIVQLDESGSLEDITLISDQYELLSHRTNSLSLEENQMRTLSSHGDDKSNDEEEELSVDSDRFRVDSDIELDVISQFCDLSPFLRDLSLNDLIKLYVTQNEQLQMLSNSV

- binding [2]: binds
B3: Atg16 (untagged or C-terminally FLAG-tagged) (protein, UniProt Q03818 1-150)
chain: MGNFIITERKKAKEERSNPQTDSMDDLLIRRLTDRNDKEAHLNELFQDNSGAIGGNIVSHDDALLNTLAILQKELKSKEQEIRRLKEVIALKNKNTERLNDELISGTIENNVLQQKLSDLKKEHSQLVARWLKKTEKETEAMNSEIDGTK
